# Assay results

The results are deposited in PubChem (AID504749; NCATS, 2011).

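A panel of P. falciparum strains inside erythrocytes is exposed to compounds for three days, then a DNA-binding dye reports the amount of parasite DNA.
Each compound was titrated across a series from about 0.000037 to 29 µM.
The number is the fitted AC50, the concentration giving a half-maximal change in signal; a lower value means higher potency, whether the curve shows a decrease or an increase.
Calls follow the curve class and fit quality: every row here is inconclusive, covering signal-raising curves and weak, poorly fitted, partial or highest-dose-only inhibition curves.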

Values are in nM.
All entries here are filed as inconclusive.
These entries are mostly ones the record files as inconclusive; other results of the assay are not listed here.
Potencies fitted to partial, single-point or poorly fitting curves are rough.

Compound	setting	fitted potency (nM)	curve as filed
CN(Cc1ccc(C(C)(C)C)cc1)Cc1cccc2ccccc12	P94_40	10000	inhibitor, partial curve
C#Cc1cccc(Nc2ncnc3cc(OCCOC)c(OCCOC)cc23)c1	CP201	15101	inhibitor, partial curve, poor fit
C#Cc1cccc(Nc2ncnc3cc(OCCOC)c(OCCOC)cc23)c1	CP260	10000	inhibitor, single point
C#Cc1cccc(Nc2ncnc3cc(OCCOC)c(OCCOC)cc23)c1	ATS189	10000	inhibitor, single point
C#Cc1cccc(Nc2ncnc3cc(OCCOC)c(OCCOC)cc23)c1	CP269	15101	inhibitor, single point
C#Cc1cccc(Nc2ncnc3cc(OCCOC)c(OCCOC)cc23)c1	CP252	17782	inhibitor, single point
C#Cc1cccc(Nc2ncnc3cc(OCCOC)c(OCCOC)cc23)c1	CP250	11220	inhibitor, single point
C#Cc1cccc(Nc2ncnc3cc(OCCOC)c(OCCOC)cc23)c1	ATS95	11220	inhibitor, partial curve
C#Cc1cccc(Nc2ncnc3cc(OCCOC)c(OCCOC)cc23)c1	SC27B	8912	inhibitor, partial curve, poor fit
C#Cc1cccc(Nc2ncnc3cc(OCCOC)c(OCCOC)cc23)c1	C2A	14125	inhibitor, partial curve, poor fit
C#Cc1cccc(Nc2ncnc3cc(OCCOC)c(OCCOC)cc23)c1	CP268	19011	inhibitor, partial curve, poor fit
C#Cc1cccc(Nc2ncnc3cc(OCCOC)c(OCCOC)cc23)c1	GB4	16944	inhibitor, partial curve
C#Cc1cccc(Nc2ncnc3cc(OCCOC)c(OCCOC)cc23)c1	PC15	11220	inhibitor, single point
C#Cc1cccc(Nc2ncnc3cc(OCCOC)c(OCCOC)cc23)c1	CP191	14125	inhibitor, single point
C#Cc1cccc(Nc2ncnc3cc(OCCOC)c(OCCOC)cc23)c1	TAB113	12589	inhibitor, partial curve, poor fit
C#Cc1cccc(Nc2ncnc3cc(OCCOC)c(OCCOC)cc23)c1	CP291	19011	inhibitor, single point
C#Cc1cccc(Nc2ncnc3cc(OCCOC)c(OCCOC)cc23)c1	TAB109	12589	inhibitor, single point
C#Cc1cccc(Nc2ncnc3cc(OCCOC)c(OCCOC)cc23)c1	CP215	15101	inhibitor, single point
C#Cc1cccc(Nc2ncnc3cc(OCCOC)c(OCCOC)cc23)c1	CP325	9528	inhibitor, partial curve, poor fit
C#Cc1cccc(Nc2ncnc3cc(OCCOC)c(OCCOC)cc23)c1	TAB165	12589	inhibitor, single point
C#Cc1cccc(Nc2ncnc3cc(OCCOC)c(OCCOC)cc23)c1	CP247	12589	inhibitor, partial curve
C#Cc1cccc(Nc2ncnc3cc(OCCOC)c(OCCOC)cc23)c1	CP238	8912	inhibitor, single point
C#Cc1cccc(Nc2ncnc3cc(OCCOC)c(OCCOC)cc23)c1	CP256	10000	inhibitor, single point
C#Cc1cccc(Nc2ncnc3cc(OCCOC)c(OCCOC)cc23)c1	CP286	12589	inhibitor, single point
C#Cc1cccc(Nc2ncnc3cc(OCCOC)c(OCCOC)cc23)c1	CP217	11220	inhibitor, single point
C#Cc1cccc(Nc2ncnc3cc(OCCOC)c(OCCOC)cc23)c1	HB3	12589	inhibitor, single point
C#Cc1cccc(Nc2ncnc3cc(OCCOC)c(OCCOC)cc23)c1	CP335	16944	inhibitor, single point
C#Cc1cccc(Nc2ncnc3cc(OCCOC)c(OCCOC)cc23)c1	N140	7943	inhibitor, partial curve, poor fit
C#Cc1cccc(Nc2ncnc3cc(OCCOC)c(OCCOC)cc23)c1	CP194	15101	inhibitor, single point